Measured values reported in article PMC6141617.
Results are given in words; binding and its absence hold for the method and conditions named. Some entries that bind do so weakly or less than the wild type. Tags and fused reporters may be left off the sequences shown.

Sequences of proteins named here, by UniProt entry; tags and fusion partners are left off. Residues count along the entry.
UniProt P31946, residues 1-239: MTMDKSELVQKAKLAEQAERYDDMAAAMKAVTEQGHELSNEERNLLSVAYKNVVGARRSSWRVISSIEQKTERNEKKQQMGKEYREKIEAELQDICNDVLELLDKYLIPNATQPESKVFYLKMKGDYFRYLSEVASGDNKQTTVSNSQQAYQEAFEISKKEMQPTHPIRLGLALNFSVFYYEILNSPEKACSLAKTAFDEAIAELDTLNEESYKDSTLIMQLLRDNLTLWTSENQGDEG

Target: T1, GFP-ExoS^233–419 (Pseudomonas aeruginosa) (UniProt G3XDA1)
T1 sequence: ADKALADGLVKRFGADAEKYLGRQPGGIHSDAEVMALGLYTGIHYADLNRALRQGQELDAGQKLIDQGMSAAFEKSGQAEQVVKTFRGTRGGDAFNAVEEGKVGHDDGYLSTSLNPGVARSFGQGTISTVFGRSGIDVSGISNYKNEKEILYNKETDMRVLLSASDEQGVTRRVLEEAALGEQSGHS
Assay: fluorescence polarisation; both purified

“14-3-3β (purified alone) (from UniProt P31946 1-239)” was tested, and the binding was “binds”.
